These are yes or no findings as the source states them, for the method shown. Binding seen in cells or lysates may run through a third protein. Some entries that bind do so weakly or less than the wild type. Tags and fused reporters may be left off the sequences shown.
Molecular target: T1, his-tagged full-length GREM1 (Homo sapiens (Human)) (UniProt O60565)
T1 sequence: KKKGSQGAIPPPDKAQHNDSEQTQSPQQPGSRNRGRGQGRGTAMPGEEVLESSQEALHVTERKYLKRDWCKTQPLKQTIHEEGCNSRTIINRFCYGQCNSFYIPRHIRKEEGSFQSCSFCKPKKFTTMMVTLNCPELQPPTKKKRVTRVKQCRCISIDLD
Experiment: competition pull-down; the peptide competes with Fc-tagged ACVR1C-ECD for his-tagged GREM1 (FIG. 11b)

## TECCFTDFCNNITLHLPTA [ACVR1C peptide]
  binding: binds
